The values below come from the supplement of paper PMC10849652.

Chains of the proteins cited; added tags and fusions are not shown. Lines headed by an entry give the natural chain unless they say otherwise; changes in a name come on top.
UniProt O00623: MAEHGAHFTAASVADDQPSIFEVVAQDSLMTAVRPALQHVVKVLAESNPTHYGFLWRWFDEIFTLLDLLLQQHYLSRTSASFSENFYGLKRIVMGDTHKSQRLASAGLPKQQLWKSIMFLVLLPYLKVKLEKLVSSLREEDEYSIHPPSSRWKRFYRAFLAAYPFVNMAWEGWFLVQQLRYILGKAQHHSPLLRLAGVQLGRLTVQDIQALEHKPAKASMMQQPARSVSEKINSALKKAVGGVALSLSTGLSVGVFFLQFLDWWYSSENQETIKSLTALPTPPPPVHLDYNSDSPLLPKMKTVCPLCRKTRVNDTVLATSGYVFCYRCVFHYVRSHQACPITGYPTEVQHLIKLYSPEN
UniProt Q5T2R2: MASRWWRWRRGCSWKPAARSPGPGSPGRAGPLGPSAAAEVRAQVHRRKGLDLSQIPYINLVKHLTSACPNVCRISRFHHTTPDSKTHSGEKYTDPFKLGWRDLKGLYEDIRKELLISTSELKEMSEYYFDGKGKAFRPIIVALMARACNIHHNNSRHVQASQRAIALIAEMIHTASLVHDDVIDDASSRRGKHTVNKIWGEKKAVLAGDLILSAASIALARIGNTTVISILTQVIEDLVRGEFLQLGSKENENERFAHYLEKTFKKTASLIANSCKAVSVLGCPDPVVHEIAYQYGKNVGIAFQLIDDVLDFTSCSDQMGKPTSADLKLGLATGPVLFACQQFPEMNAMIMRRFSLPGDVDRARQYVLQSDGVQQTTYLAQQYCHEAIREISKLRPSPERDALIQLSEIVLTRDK
UniProt O00151: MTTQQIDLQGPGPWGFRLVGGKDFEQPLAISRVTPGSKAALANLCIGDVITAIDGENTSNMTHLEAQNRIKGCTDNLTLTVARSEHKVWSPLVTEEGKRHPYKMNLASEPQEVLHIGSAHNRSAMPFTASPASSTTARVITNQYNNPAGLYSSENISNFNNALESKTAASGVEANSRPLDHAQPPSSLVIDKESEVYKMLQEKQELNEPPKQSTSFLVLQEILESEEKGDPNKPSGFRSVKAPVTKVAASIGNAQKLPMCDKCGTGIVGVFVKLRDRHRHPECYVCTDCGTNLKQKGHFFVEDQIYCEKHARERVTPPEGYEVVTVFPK
UniProt P50479: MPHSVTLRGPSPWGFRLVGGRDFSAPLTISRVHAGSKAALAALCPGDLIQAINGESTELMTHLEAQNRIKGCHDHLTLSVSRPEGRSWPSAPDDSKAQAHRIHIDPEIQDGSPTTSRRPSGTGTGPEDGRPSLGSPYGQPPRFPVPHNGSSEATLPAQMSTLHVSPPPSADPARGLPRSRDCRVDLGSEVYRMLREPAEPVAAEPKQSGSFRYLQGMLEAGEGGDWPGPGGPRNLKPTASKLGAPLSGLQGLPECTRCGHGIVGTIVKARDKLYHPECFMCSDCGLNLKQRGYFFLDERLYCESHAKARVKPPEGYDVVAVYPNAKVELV
UniProt Q9UHG3: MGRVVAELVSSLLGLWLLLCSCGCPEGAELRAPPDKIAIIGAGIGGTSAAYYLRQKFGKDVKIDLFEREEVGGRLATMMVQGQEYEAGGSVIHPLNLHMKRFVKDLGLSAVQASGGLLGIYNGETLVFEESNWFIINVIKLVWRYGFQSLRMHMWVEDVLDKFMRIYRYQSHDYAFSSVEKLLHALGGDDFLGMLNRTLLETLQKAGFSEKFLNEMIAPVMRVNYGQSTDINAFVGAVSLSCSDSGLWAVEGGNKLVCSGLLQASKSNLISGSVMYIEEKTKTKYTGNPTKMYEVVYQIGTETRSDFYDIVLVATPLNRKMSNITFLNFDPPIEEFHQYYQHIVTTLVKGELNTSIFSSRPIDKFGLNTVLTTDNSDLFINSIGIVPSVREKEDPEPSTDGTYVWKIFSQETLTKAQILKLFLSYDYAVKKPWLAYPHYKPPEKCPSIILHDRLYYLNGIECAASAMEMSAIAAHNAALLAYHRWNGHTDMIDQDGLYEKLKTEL
UniProt Q96GD0: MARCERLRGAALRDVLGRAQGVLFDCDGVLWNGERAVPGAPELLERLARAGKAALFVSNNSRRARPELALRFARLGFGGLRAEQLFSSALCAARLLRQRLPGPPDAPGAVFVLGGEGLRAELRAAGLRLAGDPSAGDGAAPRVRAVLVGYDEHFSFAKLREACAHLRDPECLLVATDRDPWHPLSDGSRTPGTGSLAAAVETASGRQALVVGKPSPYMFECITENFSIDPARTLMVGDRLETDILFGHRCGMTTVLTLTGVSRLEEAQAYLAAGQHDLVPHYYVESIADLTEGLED
UniProt P56645: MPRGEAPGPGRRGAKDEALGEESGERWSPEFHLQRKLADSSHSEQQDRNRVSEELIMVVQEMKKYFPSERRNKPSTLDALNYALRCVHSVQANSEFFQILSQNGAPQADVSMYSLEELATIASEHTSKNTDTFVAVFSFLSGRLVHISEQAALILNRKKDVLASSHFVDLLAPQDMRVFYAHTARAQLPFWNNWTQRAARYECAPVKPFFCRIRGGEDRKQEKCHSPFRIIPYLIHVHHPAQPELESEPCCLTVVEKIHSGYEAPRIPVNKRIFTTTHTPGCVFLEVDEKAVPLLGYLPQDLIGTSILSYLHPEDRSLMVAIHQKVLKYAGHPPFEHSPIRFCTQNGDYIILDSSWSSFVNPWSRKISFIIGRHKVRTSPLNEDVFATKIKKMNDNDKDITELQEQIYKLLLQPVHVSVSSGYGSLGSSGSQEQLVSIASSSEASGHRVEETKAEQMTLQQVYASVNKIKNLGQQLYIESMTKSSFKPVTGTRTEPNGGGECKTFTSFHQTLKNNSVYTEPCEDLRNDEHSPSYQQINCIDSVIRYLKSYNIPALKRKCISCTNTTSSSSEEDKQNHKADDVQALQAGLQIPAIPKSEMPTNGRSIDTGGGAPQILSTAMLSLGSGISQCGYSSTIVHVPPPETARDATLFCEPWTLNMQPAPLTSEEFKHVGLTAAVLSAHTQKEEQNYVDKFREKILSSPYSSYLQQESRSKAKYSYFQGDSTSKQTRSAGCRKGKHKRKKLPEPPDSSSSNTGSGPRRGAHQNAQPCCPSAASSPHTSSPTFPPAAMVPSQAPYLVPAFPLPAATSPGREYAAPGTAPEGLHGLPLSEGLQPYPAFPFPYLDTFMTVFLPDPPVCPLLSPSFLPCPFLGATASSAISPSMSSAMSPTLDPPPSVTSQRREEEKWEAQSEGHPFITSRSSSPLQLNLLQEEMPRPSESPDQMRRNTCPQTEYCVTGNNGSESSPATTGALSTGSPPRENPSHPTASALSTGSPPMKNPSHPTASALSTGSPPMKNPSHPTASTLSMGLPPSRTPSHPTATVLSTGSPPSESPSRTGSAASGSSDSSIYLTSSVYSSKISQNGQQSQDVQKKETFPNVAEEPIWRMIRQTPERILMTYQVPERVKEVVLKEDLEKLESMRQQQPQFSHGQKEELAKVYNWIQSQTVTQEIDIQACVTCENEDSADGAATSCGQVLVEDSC
UniProt Q99497, whole entry, looked up: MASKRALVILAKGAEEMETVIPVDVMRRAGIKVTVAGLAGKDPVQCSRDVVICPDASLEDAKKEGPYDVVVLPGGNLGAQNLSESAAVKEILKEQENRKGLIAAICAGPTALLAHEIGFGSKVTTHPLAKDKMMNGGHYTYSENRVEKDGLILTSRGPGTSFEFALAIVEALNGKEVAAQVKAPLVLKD
UniProt O00541, whole entry, looked up: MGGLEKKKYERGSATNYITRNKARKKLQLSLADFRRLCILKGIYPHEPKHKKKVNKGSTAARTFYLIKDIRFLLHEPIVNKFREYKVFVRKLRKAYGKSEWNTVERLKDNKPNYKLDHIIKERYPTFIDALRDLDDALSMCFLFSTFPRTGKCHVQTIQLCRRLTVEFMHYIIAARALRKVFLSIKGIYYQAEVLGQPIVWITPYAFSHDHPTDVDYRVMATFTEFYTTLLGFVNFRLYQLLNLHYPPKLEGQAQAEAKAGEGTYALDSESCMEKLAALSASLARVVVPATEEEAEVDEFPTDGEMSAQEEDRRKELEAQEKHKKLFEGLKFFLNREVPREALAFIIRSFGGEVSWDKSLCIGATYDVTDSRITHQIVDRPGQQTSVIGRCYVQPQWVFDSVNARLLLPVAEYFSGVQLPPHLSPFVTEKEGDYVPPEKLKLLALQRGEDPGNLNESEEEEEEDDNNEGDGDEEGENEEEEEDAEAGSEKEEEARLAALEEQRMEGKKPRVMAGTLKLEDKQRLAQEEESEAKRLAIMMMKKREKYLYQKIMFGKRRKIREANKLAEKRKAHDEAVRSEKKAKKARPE
UniProt Q9NUG6, whole entry, looked up: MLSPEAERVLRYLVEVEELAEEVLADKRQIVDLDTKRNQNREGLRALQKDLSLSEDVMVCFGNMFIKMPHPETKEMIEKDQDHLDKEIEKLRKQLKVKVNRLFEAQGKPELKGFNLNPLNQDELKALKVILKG
UniProt P22061: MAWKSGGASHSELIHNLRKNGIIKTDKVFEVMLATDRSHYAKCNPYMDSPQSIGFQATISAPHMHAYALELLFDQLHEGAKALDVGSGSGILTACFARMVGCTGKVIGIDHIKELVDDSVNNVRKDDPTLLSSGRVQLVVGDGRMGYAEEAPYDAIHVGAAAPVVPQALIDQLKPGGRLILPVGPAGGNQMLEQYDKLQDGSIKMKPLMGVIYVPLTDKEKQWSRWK
UniProt Q9BUL8: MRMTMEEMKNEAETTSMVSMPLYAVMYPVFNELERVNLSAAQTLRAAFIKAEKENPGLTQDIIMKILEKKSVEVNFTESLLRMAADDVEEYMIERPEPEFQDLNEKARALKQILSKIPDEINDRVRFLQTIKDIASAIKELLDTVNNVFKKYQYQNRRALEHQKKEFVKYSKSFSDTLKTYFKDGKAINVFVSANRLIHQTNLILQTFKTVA
UniProt P43034: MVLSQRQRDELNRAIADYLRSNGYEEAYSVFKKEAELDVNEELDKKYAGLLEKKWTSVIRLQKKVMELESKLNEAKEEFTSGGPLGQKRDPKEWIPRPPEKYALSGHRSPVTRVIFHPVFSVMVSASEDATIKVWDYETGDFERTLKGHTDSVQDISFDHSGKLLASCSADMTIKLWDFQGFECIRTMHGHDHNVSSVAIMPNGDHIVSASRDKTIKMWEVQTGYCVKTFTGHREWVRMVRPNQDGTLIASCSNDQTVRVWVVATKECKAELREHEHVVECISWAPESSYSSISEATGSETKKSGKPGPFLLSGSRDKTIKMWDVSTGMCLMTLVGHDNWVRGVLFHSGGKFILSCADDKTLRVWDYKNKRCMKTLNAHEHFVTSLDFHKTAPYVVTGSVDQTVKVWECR
UniProt P30101, whole entry, looked up: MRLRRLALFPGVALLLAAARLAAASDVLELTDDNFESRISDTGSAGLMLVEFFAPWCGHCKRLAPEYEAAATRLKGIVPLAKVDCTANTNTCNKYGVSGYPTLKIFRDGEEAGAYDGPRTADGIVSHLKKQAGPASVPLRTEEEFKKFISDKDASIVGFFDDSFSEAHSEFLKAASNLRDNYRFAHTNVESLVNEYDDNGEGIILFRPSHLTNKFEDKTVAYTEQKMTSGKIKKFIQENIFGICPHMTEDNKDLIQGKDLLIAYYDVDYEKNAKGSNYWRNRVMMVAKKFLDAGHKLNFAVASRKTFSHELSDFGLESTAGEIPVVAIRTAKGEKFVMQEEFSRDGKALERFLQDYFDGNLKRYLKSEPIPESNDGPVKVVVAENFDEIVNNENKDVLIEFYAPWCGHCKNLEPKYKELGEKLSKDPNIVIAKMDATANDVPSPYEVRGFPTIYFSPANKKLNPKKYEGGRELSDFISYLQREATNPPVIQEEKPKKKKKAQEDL
UniProt P11177, whole entry, looked up: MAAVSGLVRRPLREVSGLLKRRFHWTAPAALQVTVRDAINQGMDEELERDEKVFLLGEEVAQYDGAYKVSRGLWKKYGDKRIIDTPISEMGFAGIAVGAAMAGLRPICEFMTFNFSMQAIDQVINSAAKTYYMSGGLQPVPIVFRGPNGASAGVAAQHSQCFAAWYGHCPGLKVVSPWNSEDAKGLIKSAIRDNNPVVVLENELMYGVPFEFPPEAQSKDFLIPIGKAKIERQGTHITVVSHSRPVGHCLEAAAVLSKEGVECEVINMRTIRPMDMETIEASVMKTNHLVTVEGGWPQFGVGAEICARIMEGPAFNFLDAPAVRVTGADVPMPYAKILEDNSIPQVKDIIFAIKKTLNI
UniProt Q9H074: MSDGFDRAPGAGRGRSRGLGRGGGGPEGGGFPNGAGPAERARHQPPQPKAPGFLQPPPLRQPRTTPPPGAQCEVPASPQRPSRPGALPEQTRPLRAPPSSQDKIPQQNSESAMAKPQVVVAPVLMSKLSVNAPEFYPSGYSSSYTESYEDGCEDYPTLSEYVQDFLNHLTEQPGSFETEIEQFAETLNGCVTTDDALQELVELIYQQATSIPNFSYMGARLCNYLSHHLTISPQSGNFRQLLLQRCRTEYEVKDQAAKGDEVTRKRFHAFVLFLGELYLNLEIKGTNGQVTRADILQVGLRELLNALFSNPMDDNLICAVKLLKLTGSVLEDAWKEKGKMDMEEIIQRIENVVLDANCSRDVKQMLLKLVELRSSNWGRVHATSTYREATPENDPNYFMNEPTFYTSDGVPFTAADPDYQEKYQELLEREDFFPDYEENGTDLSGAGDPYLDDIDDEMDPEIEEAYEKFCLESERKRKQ

Some of the results follow.

Compound in the experiment: Cc1ccc(NC(=O)c2ccc(CN3CC[C@H](N(C)C)C3)c(C(F)(F)F)c2)cc1Nc1nccc(-c2cncnc2)n1 [bafetinib]
In words: log2 fold change, soluble protein after heating vs DMSO (PISA); higher = thermal stabilisation; K562 cells, 10 uM, 30 min; active = over 0.2 and 3.5 SD of the protein, either way, in both replicates (recomputed). The gist of the method: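 Soluble protein was quantified by TMTpro 16plex LC-MS/MS after channel sums were equalised. It was obtained as the supernatant after 21,000xg for 90 min from pooled aliquots of K562 cells (2×10^6 cells/mL, 10 μM compound, 30 min) heated for 3 min across 48°C-58°C and extracted in PBS with 0.5% NP-40 at 4°C. Thermal stability values are relative to control samples and come from duplicates. They are given as log2 fold changes.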
With PEX12 (UniProt O00623), the log2 fold change was inactive: -0.016.
The result for PDHX (UniProt O00330) reads inactive: 0.169; that for PANK4 (UniProt Q9NVE7), inactive: -0.032.
PDSS1 (UniProt Q5T2R2): the log2 fold change is inactive: -0.009.
With PDLIM1 (UniProt O00151) the figure was inactive: -0.055; with PDLIM4 (UniProt P50479), inactive: -0.048; with PAK2 (UniProt Q13177), inactive: -0.043.
With PACSIN2 (UniProt Q9UNF0) the figure was inactive: 0.058.
The result for PDXDC1 (UniProt Q6P996) reads inactive: -0.167; that for PASK (UniProt Q96RG2), inactive: 0.001; that for PARD6B (UniProt Q9BYG5), inactive: 0.011.
With PEBP1 (UniProt P30086), the log2 fold change was inactive: -0.043.
The result for PCYOX1 (UniProt Q9UHG3) reads inactive: 0.057; that for PDXP (UniProt Q96GD0), inactive: -0.031; that for PER3 isoform 2 (UniProt P56645), inactive: -0.032.
The result for PEX1 (UniProt O43933) reads inactive: -0.04; that for PARK7 (UniProt Q99497), inactive: 0.007.
For the target PAK1IP1 (UniProt Q9NWT1), the log2 fold change was inactive: 0.364.
With PES1 (UniProt O00541) the figure was inactive: 0.071; with PDRG1 (UniProt Q9NUG6), inactive: 0.017.
For PDXK (UniProt O00764), the log2 fold change is inactive: -0.022.
For the target PABPC4 isoform 3 (UniProt Q13310), the log2 fold change is inactive: 0.024.
As to PCMT1 isoform 2 (UniProt P22061), the log2 fold change is inactive: 0.001.
Consider PEPD (UniProt P12955), for which the log2 fold change is inactive: 0.006.
As for PDCD10 (UniProt Q9BUL8), the log2 fold change is inactive: -0.015.
In the case of PAPOLA (UniProt P51003), the log2 fold change was inactive: -0.066.
For the target PARVB (UniProt Q9HBI1), the log2 fold change is inactive: -0.028.
With PANX1 (UniProt Q96RD7) the figure was inactive: -0.038; with PAFAH1B1 (UniProt P43034), inactive: -0.037; with PDIA3 (UniProt P30101), inactive: 0.1.
With PDHB (UniProt P11177) the figure was inactive: 0.188; with PAIP1 (UniProt Q9H074), inactive: -0.044; with PDCL (UniProt Q13371), inactive: -0.026.
